Measurements reported in article PMC10933290.
No constants are given. Whether binding was seen depends on the method and setting. Binding seen in cells or lysates may run through a third protein. Some entries that bind do so weakly or less than the wild type.

The chains behind the UniProt entries cited, without tags or fusion partners.
UniProt P59941: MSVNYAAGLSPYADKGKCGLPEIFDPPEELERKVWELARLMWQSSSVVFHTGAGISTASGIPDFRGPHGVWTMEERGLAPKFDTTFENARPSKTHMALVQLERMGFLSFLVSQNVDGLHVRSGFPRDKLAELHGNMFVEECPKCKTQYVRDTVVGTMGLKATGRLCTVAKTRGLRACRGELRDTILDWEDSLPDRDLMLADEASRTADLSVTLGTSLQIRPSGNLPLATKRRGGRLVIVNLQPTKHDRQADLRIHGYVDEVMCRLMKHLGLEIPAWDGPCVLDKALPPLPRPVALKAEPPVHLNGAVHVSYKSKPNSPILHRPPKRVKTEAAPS
UniProt P53566: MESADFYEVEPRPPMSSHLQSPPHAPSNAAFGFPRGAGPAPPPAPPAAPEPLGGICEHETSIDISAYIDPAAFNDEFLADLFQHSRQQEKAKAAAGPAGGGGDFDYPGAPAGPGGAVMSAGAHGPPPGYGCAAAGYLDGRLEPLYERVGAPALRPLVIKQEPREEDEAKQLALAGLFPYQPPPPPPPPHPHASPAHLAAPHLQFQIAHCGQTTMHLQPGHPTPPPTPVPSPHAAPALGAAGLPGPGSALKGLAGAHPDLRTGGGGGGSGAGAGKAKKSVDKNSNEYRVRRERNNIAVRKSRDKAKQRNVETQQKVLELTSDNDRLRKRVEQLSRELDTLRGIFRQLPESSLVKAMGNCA

Molecular target: Sirt6-GFP (UniProt P59941)
Assay: co-IP; lysates of 293T/17 cells expressing Sirt6-GFP and C/ebpα (induced 48 h); IP overnight at 4 °C with 2 μg antibody against Sirt6 or C/EBP alpha, protein A/G agarose beads, washed with 300 mM NaCl in lysis buffer; detected with antibodies of Sirt6 and C/ebpα

- binding: binds
Substance: C/ebpα (from UniProt P53566 1-359)
